US20260139057A1 (University of California, published 2026)

Target: recombinant human integrin αvβ8 ectodomain (human)
Test: cryo-EM of the complex

binding: binds
B1: ADWA 11 2.4 Fab (Fab, V domains shown)
VH: EVQLVESGGGLVQPGGSLRLSCAASGFNIKDYYMNWVRQAPGKGLEWVGWIDPDQGNTIYEPKFQGRFTISADTSKNSAYLQMNSLRAEDTAVYYCARRLLMDYWGQGTLVTVSS
VL: DIQMTQSPSSLSASVGDRVTITCRSTKSLSHFNGNTYLFWYQQKPGKAPKRLIYYMSSLASGVPSRFSGSGSGTDFTLTISSLQPEDFATYYCQQSLEYPFTFGGGTKVEIKR

These are yes or no findings as the source states them, for the method shown. Binding can be weak; no strength is given.
